Assay results reported in article PMC6656764.
These are yes or no findings as the source states them, for the method shown. In cells and extracts the contact can be indirect. Some binding calls cover weakened binding; strength is not graded here.

The chains behind the UniProt entries cited, without tags or fusion partners. Residues count along the entry.
UniProt P70302, residues 23-685: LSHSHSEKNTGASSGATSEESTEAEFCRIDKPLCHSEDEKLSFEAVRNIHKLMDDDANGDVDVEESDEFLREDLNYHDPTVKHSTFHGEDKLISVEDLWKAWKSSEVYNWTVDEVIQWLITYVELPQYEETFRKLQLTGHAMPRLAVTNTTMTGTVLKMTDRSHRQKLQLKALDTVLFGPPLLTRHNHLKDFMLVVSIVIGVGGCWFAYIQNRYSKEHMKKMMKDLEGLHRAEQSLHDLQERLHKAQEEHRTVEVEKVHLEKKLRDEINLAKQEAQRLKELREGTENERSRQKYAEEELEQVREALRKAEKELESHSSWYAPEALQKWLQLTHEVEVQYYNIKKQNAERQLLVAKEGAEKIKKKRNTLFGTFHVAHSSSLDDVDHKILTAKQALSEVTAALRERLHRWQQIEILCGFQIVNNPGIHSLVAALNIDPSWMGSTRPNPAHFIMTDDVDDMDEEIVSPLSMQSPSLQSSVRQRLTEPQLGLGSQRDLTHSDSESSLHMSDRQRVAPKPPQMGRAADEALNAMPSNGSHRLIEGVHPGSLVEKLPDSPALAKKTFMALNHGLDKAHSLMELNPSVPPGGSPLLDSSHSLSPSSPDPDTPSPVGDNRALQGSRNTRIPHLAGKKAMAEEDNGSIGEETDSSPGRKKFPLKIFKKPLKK
UniProt Q99J21: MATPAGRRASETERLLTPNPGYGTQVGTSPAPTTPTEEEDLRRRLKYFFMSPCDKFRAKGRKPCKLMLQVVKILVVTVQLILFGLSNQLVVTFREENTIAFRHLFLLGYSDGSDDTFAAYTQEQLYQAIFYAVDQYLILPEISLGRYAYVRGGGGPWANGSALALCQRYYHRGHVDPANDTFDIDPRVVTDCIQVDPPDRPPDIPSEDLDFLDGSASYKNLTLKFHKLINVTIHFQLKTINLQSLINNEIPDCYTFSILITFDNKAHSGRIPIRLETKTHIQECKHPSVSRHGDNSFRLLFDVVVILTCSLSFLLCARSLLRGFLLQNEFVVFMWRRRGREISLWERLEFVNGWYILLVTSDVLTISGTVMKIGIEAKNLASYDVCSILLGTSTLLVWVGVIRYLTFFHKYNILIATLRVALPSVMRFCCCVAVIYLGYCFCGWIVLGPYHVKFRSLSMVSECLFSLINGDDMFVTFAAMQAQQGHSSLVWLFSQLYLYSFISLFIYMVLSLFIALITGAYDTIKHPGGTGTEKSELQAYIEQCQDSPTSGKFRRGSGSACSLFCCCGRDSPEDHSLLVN

Biological target: STIM1 (mouse (endogenous in NSC-34)) (UniProt P70302)
Assay: co-IP; lysates (500 ug) of differentiated NSC-34 cells; immunoprecipitated with anti-STIM1 or anti-TRPML1, blotted with anti-TRPML1 or anti-STIM1 respectively; lysis buffer 50 mM HEPES, 100 mM NaCl, 1.5 mM MgCl2, 0.2% Nonidet P-40

- binding: binds
Substance: Mucolipin TRP channel 1 (TRPML1) (from UniProt Q99J21 1-580)
